Test results reported in article PMC9692554.

Biological target: T1, pMarR (Gp0.7) WT (cyanophage P-SSP7) (UniProt Q58N47)
T1 sequence (looked up, limits assumed): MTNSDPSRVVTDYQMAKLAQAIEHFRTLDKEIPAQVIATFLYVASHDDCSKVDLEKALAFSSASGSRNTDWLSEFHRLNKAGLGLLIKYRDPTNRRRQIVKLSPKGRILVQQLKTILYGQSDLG
Test: EMSA
Settings: no Ca2+, Kd almost 4-fold higher than with Ca2+ (value only in figure); EMSA: 20 mM Tris pH 8, 60 mM KCl, 1 mM EDTA, 12% glycerol, 2 mM DTT, 1 ug poly(dI-dC), 12.5 ng (legend: 12.5 nM) Cy5-DNA, +/-5 mM Ca2+, 1% agarose 0.5x TAE; recombinant protein; protein details: C-terminal His; label: Cy5 5' (forward primer); probe letters rebuilt from the primers and the genome

## CAGCATCAATACCTGGTAGGACATTTTCAACAGTTCCTAAAAAAATATCCCCGATTTGATATTGACCTTGTGCGACGATTAATTCATCAACTTGATCATCTGTGAGTAGTGCTGCAATACGCGCCTGCTCAGCTATTACAATTTGCTGAGAC (double strand) [rne Pi+]
  binding result: binds

For at least one entry, the source does not settle the construct or the ends of the probe. Protein sequences can lack the tags named with them.
